Measured values published in paper PMC11148086.
These are yes or no findings as the source states them, for the method shown. Binding seen in cells or lysates may run through a third protein. Some entries that bind do so weakly or less than the wild type.

The chains behind the UniProt entries cited, without tags or fusion partners.
UniProt P51587: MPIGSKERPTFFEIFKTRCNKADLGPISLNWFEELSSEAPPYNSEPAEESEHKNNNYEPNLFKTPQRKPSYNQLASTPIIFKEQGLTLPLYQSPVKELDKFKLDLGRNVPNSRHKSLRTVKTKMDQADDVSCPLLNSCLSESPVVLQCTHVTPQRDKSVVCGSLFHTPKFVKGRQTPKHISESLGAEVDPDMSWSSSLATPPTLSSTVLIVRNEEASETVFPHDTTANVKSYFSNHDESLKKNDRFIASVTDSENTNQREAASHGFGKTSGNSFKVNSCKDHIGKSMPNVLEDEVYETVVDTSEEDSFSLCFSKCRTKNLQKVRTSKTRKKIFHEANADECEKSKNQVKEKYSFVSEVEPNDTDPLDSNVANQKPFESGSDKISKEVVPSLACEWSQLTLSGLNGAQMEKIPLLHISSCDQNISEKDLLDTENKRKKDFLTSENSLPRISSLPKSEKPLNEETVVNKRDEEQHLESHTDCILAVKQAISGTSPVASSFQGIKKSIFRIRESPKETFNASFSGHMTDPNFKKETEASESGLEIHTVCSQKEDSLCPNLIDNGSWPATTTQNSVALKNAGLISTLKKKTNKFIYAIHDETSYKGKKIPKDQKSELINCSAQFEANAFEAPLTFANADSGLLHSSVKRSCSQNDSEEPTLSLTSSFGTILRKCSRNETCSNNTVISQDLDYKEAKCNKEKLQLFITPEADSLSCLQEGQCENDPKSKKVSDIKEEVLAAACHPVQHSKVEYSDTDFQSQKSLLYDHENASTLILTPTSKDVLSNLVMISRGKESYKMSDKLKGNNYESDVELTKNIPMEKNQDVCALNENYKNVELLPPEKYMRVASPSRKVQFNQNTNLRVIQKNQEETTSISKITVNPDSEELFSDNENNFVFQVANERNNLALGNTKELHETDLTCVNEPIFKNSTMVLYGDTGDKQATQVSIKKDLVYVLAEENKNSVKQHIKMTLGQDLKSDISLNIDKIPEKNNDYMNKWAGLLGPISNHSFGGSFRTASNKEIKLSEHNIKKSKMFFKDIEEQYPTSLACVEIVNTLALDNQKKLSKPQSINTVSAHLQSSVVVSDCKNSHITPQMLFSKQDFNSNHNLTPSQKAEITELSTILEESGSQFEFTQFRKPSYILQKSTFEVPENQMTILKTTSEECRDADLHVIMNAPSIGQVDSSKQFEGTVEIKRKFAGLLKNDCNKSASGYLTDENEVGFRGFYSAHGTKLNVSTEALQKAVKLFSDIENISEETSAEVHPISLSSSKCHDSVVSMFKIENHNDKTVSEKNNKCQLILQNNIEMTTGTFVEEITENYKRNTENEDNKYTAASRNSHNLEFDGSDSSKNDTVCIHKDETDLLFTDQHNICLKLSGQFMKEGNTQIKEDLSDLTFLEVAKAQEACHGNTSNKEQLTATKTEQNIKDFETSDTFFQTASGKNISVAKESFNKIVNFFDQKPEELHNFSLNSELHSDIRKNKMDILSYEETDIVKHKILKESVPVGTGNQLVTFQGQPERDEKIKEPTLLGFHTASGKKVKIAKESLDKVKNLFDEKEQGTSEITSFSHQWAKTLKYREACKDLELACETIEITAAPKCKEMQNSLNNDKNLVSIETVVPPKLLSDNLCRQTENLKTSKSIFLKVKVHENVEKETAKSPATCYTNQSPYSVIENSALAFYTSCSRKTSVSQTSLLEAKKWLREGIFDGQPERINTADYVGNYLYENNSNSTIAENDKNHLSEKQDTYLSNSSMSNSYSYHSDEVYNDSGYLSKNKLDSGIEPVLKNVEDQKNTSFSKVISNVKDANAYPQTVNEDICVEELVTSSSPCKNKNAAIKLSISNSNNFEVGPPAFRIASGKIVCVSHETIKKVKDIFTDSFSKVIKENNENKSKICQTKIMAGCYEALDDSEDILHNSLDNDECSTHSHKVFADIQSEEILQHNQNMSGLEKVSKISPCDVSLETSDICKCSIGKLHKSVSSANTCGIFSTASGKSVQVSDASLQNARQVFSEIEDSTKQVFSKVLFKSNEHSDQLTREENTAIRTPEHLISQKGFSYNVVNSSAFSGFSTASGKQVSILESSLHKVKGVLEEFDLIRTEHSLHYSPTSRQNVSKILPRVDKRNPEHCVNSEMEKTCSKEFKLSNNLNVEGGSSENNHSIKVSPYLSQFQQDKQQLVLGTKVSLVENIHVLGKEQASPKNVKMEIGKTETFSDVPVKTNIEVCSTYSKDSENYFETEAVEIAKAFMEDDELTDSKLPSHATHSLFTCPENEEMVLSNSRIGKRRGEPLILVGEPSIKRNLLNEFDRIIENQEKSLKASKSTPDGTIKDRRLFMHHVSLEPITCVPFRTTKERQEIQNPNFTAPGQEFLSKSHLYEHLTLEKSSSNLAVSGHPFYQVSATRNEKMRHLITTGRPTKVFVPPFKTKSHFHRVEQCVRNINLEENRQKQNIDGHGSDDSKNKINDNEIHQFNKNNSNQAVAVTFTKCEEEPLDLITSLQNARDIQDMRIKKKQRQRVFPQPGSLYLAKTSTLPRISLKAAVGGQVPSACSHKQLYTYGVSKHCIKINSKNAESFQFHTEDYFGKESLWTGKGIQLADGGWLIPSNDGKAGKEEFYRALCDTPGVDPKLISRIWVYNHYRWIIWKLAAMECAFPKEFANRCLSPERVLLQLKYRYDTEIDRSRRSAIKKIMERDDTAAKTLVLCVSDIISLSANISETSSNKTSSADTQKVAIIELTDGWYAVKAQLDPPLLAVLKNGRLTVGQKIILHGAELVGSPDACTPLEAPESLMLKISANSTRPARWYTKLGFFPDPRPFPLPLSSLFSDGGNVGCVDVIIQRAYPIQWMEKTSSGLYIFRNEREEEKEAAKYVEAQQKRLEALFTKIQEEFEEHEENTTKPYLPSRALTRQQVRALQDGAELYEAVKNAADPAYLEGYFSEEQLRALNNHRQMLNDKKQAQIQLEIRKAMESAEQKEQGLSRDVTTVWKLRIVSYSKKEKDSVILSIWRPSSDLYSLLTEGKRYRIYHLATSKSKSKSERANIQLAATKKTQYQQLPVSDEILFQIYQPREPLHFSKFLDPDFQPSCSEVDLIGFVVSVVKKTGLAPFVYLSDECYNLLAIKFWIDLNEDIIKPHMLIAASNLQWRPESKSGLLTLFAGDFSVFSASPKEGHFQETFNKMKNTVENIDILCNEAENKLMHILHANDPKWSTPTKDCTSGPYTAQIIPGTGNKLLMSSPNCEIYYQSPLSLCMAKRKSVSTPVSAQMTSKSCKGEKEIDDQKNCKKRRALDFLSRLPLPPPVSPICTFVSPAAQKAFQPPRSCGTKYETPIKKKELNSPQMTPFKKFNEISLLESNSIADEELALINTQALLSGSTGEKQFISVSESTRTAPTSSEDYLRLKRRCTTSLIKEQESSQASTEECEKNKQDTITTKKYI

Target: T1, RNase H1 (human (endogenous in FT-194 fallopian tube epithelial cells)) (UniProt O60930)
T1 sequence: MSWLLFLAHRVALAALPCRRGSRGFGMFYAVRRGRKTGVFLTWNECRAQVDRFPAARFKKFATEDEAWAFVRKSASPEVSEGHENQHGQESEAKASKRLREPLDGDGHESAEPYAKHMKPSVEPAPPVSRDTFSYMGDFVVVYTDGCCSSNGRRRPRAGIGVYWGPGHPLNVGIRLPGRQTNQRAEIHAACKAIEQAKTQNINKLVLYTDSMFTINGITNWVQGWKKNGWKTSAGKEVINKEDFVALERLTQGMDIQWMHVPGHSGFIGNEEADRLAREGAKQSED
Test: proximity ligation; Duolink PLA on fixed (3.7% formaldehyde), permeabilised FTE cells with antibodies against the two endogenous proteins; foci per nucleus; cells with or without DOX-induced BRCA2 knockdown, 0.2 mM HU 4 h, 100 uM DRB 90 min, CDC7i, PARPi, ATRi; single and no antibody controls

binding: binds
Substance: BRCA2 (from UniProt P51587 1-3418)
